Results reported in article PMC11304990, “Identification of mitochondrial ATP synthase as the cellular target of Ru-polypyridyl-β-carboline complexes by affinity-based protein profiling” (National Science Review, 2024).

Tested on: A549 cells
Test: Mitochondrial proteomics
Type: cell-based, human
Conditions: 10 μM, 12 h

## F[P-](F)(F)(F)(F)F.F[P-](F)(F)(F)(F)F.[Ru+2].c1ccc2c(c1)[nH]c1c(-c3ncc[nH]3)nccc12.c1cnc2c(c1)ccc1cccnc12.c1cnc2c(c1)ccc1cccnc12 [Ru5]
  DAPs down-regulated: 19
  DAPs up-regulated: 1
|fold change| ≥ 1.8, FDR ≤ 0.01, of 556 proteins
  Differentially accumulated proteins (DAPs), total: 20
